From article PMC9278858 come the findings set out here.

The chains behind the UniProt entries cited, without tags or fusion partners.
UniProt P08518: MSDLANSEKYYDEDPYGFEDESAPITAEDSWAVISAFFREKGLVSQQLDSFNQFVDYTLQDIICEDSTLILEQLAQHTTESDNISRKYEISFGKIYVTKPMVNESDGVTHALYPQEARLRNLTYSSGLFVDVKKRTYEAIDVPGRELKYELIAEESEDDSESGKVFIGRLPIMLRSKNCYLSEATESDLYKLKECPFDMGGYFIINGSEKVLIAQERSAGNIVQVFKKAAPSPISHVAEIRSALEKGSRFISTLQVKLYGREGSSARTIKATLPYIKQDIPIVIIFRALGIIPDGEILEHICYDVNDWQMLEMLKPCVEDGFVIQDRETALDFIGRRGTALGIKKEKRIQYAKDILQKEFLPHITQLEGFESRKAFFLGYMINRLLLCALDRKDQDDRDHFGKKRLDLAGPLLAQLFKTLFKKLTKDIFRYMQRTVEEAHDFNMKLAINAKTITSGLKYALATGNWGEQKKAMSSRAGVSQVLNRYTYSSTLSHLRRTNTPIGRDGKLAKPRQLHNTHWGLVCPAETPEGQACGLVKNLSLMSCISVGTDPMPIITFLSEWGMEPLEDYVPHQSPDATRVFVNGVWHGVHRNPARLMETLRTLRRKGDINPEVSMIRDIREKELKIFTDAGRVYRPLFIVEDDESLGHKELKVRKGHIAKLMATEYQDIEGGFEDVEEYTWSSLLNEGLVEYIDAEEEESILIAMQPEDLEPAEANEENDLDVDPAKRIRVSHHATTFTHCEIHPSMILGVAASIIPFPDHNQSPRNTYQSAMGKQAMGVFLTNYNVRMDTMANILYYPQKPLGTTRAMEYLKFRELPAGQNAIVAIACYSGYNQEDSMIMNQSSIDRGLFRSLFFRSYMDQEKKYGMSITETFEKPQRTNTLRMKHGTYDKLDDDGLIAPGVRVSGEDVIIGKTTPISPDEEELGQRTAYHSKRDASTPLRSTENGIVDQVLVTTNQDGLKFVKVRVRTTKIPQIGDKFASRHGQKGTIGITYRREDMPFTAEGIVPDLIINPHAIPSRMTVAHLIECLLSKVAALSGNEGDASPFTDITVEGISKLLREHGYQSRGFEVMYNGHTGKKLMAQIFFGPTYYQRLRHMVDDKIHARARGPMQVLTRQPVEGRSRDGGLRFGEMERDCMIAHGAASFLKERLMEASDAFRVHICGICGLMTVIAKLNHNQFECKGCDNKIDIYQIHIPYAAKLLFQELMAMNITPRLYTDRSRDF
UniProt P04050: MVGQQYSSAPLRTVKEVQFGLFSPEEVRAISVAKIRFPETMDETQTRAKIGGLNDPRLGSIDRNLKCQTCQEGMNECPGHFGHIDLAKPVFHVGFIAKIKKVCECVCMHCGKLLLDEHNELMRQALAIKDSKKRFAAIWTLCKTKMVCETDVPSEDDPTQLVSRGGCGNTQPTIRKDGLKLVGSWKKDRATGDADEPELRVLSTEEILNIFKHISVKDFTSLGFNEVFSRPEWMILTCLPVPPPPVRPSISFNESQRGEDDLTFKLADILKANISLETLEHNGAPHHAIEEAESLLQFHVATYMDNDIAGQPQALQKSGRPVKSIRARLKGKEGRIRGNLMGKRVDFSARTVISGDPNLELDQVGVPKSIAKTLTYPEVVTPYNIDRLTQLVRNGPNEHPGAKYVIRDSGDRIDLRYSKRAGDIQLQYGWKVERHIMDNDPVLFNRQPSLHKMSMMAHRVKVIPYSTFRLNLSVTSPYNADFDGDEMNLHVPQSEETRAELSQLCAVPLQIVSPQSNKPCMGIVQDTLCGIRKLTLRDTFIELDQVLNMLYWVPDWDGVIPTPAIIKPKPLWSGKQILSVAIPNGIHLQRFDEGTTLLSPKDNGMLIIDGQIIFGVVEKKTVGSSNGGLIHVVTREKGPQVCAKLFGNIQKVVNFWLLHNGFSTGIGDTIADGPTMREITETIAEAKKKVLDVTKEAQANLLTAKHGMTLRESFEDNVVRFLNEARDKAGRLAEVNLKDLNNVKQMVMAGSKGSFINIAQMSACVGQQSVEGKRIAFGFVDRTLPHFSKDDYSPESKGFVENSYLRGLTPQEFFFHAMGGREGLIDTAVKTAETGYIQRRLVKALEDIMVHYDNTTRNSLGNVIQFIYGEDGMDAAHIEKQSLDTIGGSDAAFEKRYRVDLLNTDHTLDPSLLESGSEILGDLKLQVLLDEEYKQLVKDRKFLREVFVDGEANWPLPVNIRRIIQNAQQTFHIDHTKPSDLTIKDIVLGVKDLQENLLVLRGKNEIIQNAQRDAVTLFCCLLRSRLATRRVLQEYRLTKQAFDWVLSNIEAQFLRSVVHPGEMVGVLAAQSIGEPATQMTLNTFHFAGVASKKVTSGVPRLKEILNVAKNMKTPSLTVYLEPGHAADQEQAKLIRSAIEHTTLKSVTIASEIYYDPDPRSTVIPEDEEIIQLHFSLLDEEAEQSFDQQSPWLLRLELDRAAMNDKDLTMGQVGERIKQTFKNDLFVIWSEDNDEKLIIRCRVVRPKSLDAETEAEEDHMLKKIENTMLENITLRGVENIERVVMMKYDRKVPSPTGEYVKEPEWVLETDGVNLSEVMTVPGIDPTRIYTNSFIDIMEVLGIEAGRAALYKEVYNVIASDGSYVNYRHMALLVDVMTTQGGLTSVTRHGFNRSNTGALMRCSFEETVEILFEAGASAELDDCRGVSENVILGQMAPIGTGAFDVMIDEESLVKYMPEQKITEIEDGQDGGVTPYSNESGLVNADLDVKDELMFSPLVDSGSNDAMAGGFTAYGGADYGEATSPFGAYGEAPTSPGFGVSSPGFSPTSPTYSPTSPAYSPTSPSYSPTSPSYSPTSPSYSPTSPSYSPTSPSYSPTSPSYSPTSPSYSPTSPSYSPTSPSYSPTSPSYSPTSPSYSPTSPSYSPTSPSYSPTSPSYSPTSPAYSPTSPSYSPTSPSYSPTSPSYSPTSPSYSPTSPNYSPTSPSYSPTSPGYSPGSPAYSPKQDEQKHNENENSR

Where two headings read alike, the source gives them in different places. No constants are given. Whether binding was seen depends on the method and setting. Binding seen in cells or lysates may run through a third protein. Here binding means that the protein was enriched with, or labelled near, the bait; the list need not be complete. For some assays here: A no says only that the protein was not detected with the bait. For some assays here: Where a sequence is shown, tags or fusion partners need not be part of it.

In experiment [1] the target is T1, TAP-Sen1ΔNTD (Sen1 lacking the N-terminal domain, TAP-tagged, expressed from pGAL1) (S. cerevisiae) (UniProt Q00416).
T1 sequence: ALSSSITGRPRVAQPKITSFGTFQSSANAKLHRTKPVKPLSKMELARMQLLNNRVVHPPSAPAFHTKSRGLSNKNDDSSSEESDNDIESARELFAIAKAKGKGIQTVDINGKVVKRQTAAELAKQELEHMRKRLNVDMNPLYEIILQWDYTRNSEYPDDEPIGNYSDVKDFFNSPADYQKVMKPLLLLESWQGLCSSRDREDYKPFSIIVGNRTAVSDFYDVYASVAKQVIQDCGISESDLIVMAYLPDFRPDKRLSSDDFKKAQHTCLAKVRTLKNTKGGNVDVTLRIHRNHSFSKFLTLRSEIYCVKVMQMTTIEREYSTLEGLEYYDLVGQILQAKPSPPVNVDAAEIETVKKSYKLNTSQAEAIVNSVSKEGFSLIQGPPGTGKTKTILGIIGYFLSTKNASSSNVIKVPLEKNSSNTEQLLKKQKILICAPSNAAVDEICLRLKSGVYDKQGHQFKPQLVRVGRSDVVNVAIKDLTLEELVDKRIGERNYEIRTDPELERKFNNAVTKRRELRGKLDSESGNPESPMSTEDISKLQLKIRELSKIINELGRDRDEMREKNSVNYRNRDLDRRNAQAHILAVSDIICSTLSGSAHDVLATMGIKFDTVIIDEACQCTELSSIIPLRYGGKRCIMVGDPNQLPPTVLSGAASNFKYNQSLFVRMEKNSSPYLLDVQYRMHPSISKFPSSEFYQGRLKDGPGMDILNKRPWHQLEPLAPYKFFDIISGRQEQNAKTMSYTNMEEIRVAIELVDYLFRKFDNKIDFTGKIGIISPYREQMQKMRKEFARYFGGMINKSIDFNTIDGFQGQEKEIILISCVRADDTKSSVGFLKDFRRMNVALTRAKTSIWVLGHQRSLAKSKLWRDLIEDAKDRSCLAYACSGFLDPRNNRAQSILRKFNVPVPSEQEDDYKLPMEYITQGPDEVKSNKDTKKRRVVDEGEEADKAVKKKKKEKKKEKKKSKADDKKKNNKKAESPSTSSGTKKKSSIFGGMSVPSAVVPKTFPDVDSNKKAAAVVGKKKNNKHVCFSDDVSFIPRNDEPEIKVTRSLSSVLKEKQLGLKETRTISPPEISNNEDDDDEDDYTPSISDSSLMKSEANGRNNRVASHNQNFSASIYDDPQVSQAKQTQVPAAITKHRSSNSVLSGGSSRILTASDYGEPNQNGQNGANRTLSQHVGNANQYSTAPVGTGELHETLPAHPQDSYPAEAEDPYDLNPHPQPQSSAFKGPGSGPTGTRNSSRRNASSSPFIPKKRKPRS
The experiment can be described thus: affinity purification with mass spectrometry; TAP-tagged Sen1 versions (full length, ΔNTD, NTD) overexpressed from pGAL1 as baits; yeast lysates in 10 mM sodium phosphate pH 7.5, 200 mM sodium acetate, 0.25% NP-40, treated with RNase A; IgG Sepharose; elution by TEV cleavage; untagged control.

Experiment [2] deals with TAP-Sen1 (full-length Sen1 fused to a tandem affinity purification tag, expressed from pGAL1) (S. cerevisiae) (UniProt Q00416). The description is as above.
Experiment [3] has as its target Sen1-TAP (wild-type Sen1 fused to a TAP tag) (S. cerevisiae) (UniProt Q00416). The experiment in a line: affinity purification with mass spectrometry; Sen1-TAP or Sen1-3–TAP as bait; yeast lysates; untagged control.
In experiment [4] the target is Sen1-3–TAP (Sen1 W773A E774A W777A fused to a TAP tag) (S. cerevisiae) (UniProt Q00416). The description is as above.
Experiment [5] deals with T2, Rpc160-HTP (largest subunit of RNAPIII, C-terminally His6–TEV–Protein A tagged) (S. cerevisiae) (UniProt P04051).
T2 sequence: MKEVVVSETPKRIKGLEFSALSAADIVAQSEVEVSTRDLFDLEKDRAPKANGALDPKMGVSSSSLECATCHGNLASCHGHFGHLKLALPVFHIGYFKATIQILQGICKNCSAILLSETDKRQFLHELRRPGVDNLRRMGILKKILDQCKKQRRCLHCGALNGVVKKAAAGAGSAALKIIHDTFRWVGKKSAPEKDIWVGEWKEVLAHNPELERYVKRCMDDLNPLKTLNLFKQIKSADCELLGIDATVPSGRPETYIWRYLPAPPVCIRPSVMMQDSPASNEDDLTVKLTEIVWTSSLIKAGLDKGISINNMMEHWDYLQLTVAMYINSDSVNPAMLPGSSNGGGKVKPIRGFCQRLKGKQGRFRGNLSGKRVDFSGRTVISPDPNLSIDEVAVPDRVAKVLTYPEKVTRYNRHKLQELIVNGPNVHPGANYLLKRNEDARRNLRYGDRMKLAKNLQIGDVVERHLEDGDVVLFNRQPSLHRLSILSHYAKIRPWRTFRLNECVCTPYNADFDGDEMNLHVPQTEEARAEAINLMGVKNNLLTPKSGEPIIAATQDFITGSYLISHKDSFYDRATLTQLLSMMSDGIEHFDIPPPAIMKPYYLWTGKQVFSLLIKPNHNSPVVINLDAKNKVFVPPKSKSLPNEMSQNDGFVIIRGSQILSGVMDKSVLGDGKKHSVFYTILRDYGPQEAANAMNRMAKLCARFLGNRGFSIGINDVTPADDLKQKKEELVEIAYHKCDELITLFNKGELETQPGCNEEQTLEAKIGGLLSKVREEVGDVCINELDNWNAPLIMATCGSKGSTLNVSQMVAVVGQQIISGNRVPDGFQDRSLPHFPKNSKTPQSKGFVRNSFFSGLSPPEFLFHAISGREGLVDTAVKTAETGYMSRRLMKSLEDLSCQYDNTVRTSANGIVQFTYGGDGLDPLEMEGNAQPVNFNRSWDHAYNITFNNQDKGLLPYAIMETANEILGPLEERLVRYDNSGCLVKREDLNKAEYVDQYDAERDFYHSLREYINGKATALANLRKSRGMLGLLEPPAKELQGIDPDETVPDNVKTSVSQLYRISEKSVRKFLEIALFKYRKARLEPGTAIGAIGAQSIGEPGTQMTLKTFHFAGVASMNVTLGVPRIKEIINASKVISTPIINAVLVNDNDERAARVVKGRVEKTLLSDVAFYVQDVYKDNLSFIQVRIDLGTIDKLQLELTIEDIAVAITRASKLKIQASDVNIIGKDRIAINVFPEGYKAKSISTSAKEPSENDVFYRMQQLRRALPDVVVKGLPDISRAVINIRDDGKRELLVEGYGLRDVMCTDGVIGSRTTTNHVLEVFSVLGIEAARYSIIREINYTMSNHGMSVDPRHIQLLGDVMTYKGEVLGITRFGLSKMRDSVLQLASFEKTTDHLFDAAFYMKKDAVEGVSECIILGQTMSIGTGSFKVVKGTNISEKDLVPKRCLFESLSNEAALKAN
The experiment in a line: affinity purification with mass spectrometry; Rpc160-HTP as bait in WT (SEN1) or sen1-3 cells; IgG-coupled Dynabeads, 2 hours at 4°C; no RNase A treatment; label-free quantitative MS against an untagged control.

Experiment [6] has as its target T3, TAP-NTD (isolated N-terminal domain of Sen1, TAP-tagged, expressed from pGAL1) (S. cerevisiae) (UniProt Q00416).
T3 sequence: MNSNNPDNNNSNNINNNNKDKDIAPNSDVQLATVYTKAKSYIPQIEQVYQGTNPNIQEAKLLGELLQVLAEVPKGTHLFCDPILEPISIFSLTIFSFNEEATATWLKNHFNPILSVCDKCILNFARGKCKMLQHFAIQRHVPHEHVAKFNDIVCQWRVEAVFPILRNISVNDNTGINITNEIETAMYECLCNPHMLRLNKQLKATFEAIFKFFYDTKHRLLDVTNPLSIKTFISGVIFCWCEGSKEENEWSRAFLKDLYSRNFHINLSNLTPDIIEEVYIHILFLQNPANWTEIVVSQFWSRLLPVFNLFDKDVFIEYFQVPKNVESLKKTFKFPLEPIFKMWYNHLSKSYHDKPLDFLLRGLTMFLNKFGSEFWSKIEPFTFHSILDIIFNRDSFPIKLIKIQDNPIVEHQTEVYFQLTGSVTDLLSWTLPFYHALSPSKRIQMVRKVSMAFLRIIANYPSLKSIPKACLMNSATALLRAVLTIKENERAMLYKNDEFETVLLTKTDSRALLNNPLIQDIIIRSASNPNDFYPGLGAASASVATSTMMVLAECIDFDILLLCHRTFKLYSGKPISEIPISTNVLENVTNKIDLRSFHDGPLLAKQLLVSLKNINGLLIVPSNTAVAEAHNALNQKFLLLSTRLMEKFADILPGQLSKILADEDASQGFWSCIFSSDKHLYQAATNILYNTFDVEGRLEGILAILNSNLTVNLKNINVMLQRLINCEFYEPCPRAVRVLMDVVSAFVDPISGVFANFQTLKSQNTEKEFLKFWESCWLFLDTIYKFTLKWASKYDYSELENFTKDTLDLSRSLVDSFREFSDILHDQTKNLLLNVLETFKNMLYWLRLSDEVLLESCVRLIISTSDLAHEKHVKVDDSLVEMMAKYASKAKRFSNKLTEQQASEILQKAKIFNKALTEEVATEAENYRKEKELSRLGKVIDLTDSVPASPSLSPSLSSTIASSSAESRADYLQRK
The experiment in a line: affinity purification with mass spectrometry; TAP-tagged Sen1 versions (full length, ΔNTD, NTD) overexpressed from pGAL1 as baits; yeast lysates in 10 mM sodium phosphate pH 7.5, 200 mM sodium acetate, 0.25% NP-40, treated with RNase A; IgG Sepharose; elution by TEV cleavage; untagged control.

For experiment [7], the target named is Sen1-TAP (wild-type Sen1 fused to a TAP tag) (S. cerevisiae) (UniProt Q00416). The experiment in a line: affinity purification with mass spectrometry; Sen1-TAP or Sen1-3–TAP as bait; yeast lysates; untagged control. The source holds these as a separate data set.
For experiment [8], the target named is Sen1-3–TAP (Sen1 W773A E774A W777A fused to a TAP tag) (S. cerevisiae) (UniProt Q00416). The experiment is described as above. This is another data set of the same source.

Consider Rpb2 (from UniProt P08518 1-1224), for which the binding entry in experiment [1], in experiment [2], in experiment [3] and in experiment [4] was “binds” throughout.
On to “Sen1 (untagged, in cells expressing Rpc160-HTP, SEN1 background) (from UniProt Q00416 1-2231)”, for which the binding result in experiment [5] was “binds”.
In the case of Rpb1 (from UniProt P04050 1-1733), the binding entry in experiment [1], in experiment [2], in experiment [3] and in experiment [4] was “binds” throughout.

B1: Nab3 (protein, UniProt P38996 1-802)
chain: MSDENHNSDVQDIPSPELSVDSNSNENELMNNSSADDGIEFDAPEEEREAEREEENEEQHELEDVNDEEEEDKEEKGEENGEVINTEEEEEEEHQQKGGNDDDDDDNEEEEEEEEDDDDDDDDDDDDEEEEEEEEEEGNDNSSVGSDSAAEDGEDEEDKKDKTKDKEVELRRETLEKEQKDVDEAIKKITREENDNTHFPTNMENVNYDLLQKQVKYIMDSNMLNLPQFQHLPQEEKMSAILAMLNSNSDTALSVPPHDSTISTTASASATSGARSNDQRKPPLSDAQRRMRFPRADLSKPITEEEHDRYAAYLHGENKITEMHNIPPKSRLFIGNLPLKNVSKEDLFRIFSPYGHIMQINIKNAFGFIQFDNPQSVRDAIECESQEMNFGKKLILEVSSSNARPQFDHGDHGTNSSSTFISSAKRPFQTESGDMYNDDNGAGYKKSRRHTVSCNIFVKRTADRTYAIEVFNRFRDGTGLETDMIFLKPRMELGKLINDAAYNGVWGVVLVNKTHNVDVQTFYKGSQGETKFDEYISISADDAVAIFNNIKNNRNNSRPTDYRAMSHQQNIYGAPPLPVPNGPAVGPPPQTNYYQGYSMPPPQQQQQQPYGNYGMPPPSHDQGYGSQPPIPMNQSYGRYQTSIPPPPPQQQIPQGYGRYQAGPPPQPPSQTPMDQQQLLSAIQNLPPNVVSNLLSMAQQQQQQPHAQQQLVGLIQSMQGQAPQQQQQQLGGYSSMNSSSPPPMSTNYNGQNISAKPSAPPMSHQPPPPQQQQQQQQQQQQQQQQPAGNNVQSLLDSLAKLQK
Consider B1, for which the binding result is recorded as “binds” in experiment [1]; “binds” in experiment [2]; “no binding” in experiment [6]; “binds” in experiment [7]; “binds” in experiment [8].
